# Results are given in words; binding and its absence hold for the method and conditions named. In cells and extracts the contact can be indirect. A yes stands for co-enrichment or nearness to the bait. Other partners may have been found. No binding means not detected with the bait. Sequences can lack the tags named with a protein.
# T1: NUCLEAR RNA POLYMERASE D1 (NRPD1), carboxy-terminal 3×Flag tagged (Arabidopsis thaliana), Q9LQ02
# T1 chain: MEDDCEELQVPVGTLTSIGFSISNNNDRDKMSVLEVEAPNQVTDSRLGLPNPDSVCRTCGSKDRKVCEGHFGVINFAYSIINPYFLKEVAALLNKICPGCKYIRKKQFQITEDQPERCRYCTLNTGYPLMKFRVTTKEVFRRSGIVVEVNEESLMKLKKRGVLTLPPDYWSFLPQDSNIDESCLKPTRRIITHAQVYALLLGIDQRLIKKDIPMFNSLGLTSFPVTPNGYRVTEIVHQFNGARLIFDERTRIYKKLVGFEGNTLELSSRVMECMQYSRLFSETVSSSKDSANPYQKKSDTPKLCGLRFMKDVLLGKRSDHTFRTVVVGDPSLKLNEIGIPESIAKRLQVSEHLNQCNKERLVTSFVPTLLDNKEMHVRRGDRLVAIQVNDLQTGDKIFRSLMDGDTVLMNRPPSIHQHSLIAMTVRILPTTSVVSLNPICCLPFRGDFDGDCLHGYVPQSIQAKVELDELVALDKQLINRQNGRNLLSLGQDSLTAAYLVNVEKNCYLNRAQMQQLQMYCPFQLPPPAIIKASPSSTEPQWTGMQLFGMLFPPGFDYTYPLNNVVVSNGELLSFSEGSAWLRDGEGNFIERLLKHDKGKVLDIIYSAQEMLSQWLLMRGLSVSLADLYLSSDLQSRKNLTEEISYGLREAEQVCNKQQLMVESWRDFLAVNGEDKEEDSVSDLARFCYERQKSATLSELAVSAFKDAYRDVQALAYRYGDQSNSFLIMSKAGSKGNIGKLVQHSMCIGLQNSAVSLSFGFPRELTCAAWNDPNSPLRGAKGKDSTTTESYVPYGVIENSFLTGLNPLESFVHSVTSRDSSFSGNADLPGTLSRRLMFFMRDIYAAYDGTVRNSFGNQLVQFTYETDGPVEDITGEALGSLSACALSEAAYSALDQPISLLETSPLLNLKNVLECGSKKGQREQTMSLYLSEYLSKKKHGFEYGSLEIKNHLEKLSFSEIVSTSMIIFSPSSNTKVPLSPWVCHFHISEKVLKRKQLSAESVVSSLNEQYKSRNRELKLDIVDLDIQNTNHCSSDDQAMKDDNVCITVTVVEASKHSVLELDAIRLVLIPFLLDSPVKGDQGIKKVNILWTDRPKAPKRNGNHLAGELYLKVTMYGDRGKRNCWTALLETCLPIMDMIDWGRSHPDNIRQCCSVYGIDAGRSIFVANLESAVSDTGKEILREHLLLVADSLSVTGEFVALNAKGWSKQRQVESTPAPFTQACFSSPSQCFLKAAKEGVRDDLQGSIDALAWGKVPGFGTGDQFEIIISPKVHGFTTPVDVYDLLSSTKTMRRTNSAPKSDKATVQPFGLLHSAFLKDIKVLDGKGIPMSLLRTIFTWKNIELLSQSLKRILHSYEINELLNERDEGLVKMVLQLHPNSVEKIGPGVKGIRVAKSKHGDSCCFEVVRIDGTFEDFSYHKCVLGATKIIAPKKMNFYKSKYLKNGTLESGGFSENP
# Biological target: T1, NUCLEAR RNA POLYMERASE D1 (NRPD1), …
# Assay: affinity purification with mass spectrometry; ~10 g flower tissue of NRPD1-3×Flag and NRPD1-3×Flag-BLRP T4 plants (Col as negative control); lysis buffer 50 mM Tris pH7.6, 150 mM NaCl, 5 mM MgCl2, 10% glycerol, 0.1% NP-40; Dynabeads conjugated with a Flag antibody, 4°C 2.5 hours; eluted with 3×Flag peptide
# Settings: remark: other sources report otherwise
binder,measurement,value
"NRPB8B/D8B/E8B, Q9M1A8 1-146 (protein) MASNIIMFEDIFVVDKLDPDGKKFDKVTRVEARSHNLEMFMHLDVNTEVYPLAVGDKFTLAMAPTLNLDGTPDTGYFTPGAKKTLADKYEYIMHGKLYKISERDGKTPKAELYVSFGGLLMLLQGDPAHISHFELDQRLFLLMRKL",binding,no binding

# Reference: article PMC3141008
